Consider 8 molecules from publication PMC12860897.

Sequences of proteins named here, by UniProt entry; tags and fusion partners are left off.
UniProt P03372: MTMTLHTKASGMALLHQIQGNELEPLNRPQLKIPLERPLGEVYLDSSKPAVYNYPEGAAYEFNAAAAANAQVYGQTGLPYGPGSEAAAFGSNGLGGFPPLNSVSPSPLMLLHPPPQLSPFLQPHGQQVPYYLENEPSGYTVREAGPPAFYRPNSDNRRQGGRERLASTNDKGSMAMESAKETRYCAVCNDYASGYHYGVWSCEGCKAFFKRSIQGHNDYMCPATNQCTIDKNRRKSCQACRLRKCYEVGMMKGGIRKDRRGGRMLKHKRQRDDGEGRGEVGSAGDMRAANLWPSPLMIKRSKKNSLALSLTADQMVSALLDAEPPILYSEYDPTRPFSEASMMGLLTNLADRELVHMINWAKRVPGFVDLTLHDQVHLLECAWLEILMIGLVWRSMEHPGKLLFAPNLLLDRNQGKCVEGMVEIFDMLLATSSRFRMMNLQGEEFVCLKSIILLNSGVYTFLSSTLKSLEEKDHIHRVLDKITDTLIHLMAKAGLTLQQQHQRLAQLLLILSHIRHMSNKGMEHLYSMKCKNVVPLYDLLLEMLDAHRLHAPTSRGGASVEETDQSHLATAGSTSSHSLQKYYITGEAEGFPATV
UniProt P19785: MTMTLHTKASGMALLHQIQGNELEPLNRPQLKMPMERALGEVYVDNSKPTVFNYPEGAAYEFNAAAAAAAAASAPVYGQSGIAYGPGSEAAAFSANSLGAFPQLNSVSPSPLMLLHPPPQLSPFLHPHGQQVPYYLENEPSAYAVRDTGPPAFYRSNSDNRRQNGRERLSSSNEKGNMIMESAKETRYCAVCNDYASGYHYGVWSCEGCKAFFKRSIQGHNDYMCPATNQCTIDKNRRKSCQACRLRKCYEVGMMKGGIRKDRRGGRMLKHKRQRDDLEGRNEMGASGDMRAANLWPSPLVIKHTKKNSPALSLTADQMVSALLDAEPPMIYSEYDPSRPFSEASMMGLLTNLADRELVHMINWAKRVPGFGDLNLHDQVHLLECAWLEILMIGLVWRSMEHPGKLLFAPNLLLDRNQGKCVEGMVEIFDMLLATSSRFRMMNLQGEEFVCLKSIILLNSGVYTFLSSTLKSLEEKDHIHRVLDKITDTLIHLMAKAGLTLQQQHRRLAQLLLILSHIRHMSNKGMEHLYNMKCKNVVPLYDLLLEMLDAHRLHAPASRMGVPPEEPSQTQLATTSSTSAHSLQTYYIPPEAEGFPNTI
UniProt Q93009: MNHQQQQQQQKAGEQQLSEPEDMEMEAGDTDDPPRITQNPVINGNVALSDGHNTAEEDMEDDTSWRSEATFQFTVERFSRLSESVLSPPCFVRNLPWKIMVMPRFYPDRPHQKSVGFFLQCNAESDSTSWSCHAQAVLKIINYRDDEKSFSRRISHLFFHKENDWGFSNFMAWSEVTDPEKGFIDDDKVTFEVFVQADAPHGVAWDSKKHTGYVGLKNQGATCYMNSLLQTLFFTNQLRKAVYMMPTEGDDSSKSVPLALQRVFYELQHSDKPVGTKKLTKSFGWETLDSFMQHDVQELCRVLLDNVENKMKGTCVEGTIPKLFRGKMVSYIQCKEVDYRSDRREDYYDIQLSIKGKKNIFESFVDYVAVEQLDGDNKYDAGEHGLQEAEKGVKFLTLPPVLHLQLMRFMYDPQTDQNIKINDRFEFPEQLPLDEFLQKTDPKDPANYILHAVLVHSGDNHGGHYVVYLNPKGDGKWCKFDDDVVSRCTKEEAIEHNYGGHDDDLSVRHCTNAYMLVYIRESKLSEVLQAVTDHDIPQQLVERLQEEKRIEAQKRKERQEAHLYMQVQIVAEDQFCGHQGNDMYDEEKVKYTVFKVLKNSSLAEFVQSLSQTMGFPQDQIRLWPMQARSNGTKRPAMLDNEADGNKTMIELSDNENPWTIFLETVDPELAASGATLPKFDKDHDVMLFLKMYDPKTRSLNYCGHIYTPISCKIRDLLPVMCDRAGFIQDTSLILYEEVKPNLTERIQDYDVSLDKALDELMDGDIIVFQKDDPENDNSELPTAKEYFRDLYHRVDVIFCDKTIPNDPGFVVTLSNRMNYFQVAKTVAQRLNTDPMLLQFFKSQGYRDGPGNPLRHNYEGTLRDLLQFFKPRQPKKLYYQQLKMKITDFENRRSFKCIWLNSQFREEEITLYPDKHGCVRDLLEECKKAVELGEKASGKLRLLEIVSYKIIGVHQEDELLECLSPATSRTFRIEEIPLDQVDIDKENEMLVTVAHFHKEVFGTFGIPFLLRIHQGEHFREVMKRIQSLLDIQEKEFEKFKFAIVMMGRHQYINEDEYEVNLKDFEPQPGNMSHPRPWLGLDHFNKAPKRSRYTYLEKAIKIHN
UniProt Q9UNE7: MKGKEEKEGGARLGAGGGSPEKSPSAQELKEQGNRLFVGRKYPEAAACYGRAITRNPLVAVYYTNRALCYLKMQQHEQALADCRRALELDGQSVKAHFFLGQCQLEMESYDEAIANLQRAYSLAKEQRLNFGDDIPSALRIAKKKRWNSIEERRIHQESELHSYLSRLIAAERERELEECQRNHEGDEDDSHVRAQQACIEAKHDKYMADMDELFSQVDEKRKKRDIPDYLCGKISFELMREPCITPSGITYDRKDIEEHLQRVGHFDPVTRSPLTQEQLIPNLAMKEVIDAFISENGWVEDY

For experiment [1], the target named is HA-ERα (UniProt P03372). Description: co-IP; HEK293T cells transfected with ERα, HSD17B7 or shHSD17B7; immunoprecipitation with ERα antibody, blot for CHIP or USP7.
Experiment [2] deals with HA-ERα (UniProt P03372). Description: co-IP; HEK293T cells cotransfected with HA-ERα and MYC-HSD17B7 (WT or deletion mutant); 400 µg homogenate precipitated with anti-HA or anti-MYC antibody at 4°C overnight, protein A/G agarose, immunoblot. (A western blot detects proteins with antibodies after separation by electrophoresis.)
Experiment [3] concerns the target Estrogen receptor (ER) α, endogenous in mouse CD11b+ bone marrow cells (mouse (endogenous in CD11b+ BMCs)) (UniProt P19785). Description: co-IP; CD11b+ Control/cKO BMCs (preosteoclasts) treated with raloxifene (RAL); co-IP and immunoblot of endogenous proteins.

These are yes or no findings as the source states them, for the method shown. In cells and extracts the contact can be indirect. Some binding calls cover weakened binding; strength is not graded here. For some assays here: Tags and fused reporters may be left off the sequences shown.

Regarding “ubiquitin-specific protease 7 (USP7) (from UniProt Q93009 1-1102) (enzyme)”, the binding result with HA-ERα [1] is reported as “binds”.
The same measure, in the same setting: in the case of “carboxyl terminus of Hsc70-interacting protein (CHIP) (from UniProt Q9UNE7 1-303) (enzyme)” it was “binds”.

B1: HSD17B7 d192-200 (deletion mutant of HSD17B7-MYC) (enzyme, UniProt P56937)
chain: MRKVVLITGASSGIGLALCKRLLAEDDELHLCLACRNMSKAEAVCAALLASHPTAEVTIVQVDVSNLQSVFRASKELKQRFQRLDCIYLNAGIMPNPQLNIKALFFGLFSRKVIHMFSTAEGLLTQGDKITADGLQEVFETNVFGHFILIRELEPLLCHSDNPSQLIWTSSRSARKSNFSLEDFQHSKGKEDLLSVALNRNFNQQGLYSNVACPGTALTNLTYGILPPFIWTLLMPAILLLRFFANAFTLTPYNGTEALVWLFHQKPESLNPLIKYLSATTGFGRNYIMTQKMDLDEDTAEKFYQKLLELEKHIRVTIQKTDNQARLSGSCL
For the molecule B1, in the experiment with HA-ERα [2], the binding result is “binds”.

B2: HSD17B7 d274-302 (deletion mutant of HSD17B7-MYC) (enzyme, UniProt P56937)
chain: MRKVVLITGASSGIGLALCKRLLAEDDELHLCLACRNMSKAEAVCAALLASHPTAEVTIVQVDVSNLQSVFRASKELKQRFQRLDCIYLNAGIMPNPQLNIKALFFGLFSRKVIHMFSTAEGLLTQGDKITADGLQEVFETNVFGHFILIRELEPLLCHSDNPSQLIWTSSRSARKSNFSLEDFQHSKGKEPYSSSKYATDLLSVALNRNFNQQGLYSNVACPGTALTNLTYGILPPFIWTLLMPAILLLRFFANAFTLTPYNGTEALVWLFHDLDEDTAEKFYQKLLELEKHIRVTIQKTDNQARLSGSCL
B2: the binding result with HA-ERα [2] was “binds”.

B3: HSD17B7 d5-45 (deletion mutant of HSD17B7-MYC) (enzyme, UniProt P56937)
chain: MRKVAALLASHPTAEVTIVQVDVSNLQSVFRASKELKQRFQRLDCIYLNAGIMPNPQLNIKALFFGLFSRKVIHMFSTAEGLLTQGDKITADGLQEVFETNVFGHFILIRELEPLLCHSDNPSQLIWTSSRSARKSNFSLEDFQHSKGKEPYSSSKYATDLLSVALNRNFNQQGLYSNVACPGTALTNLTYGILPPFIWTLLMPAILLLRFFANAFTLTPYNGTEALVWLFHQKPESLNPLIKYLSATTGFGRNYIMTQKMDLDEDTAEKFYQKLLELEKHIRVTIQKTDNQARLSGSCL
Take B3: in the experiment with HA-ERα [2], the binding entry is reported as “binds”.

B4: 17β-hydroxysteroid dehydrogenase type 7 (HSD17B7), endogenous in mouse CD11b+ bone marrow cells (enzyme, UniProt O88736 1-334)
chain: MRKVVLITGASSGIGLALCGRLLAEDDDLHLCLACRNLSKARAVRDTLLASHPSAEVSIVQMDVSSLQSVVRGAEEVKQKFQRLDYLYLNAGILPNPQFNLKAFFCGIFSRNVIHMFTTAEGILTQNDSVTADGLQEVFETNLFGHFILIRELEPLLCHADNPSQLIWTSSRNAKKANFSLEDIQHSKGPEPYSSSKYATDLLNVALNRNFNQKGLYSSVMCPGVVMTNMTYGILPPFIWTLLLPIMWLLRFFVNALTVTPYNGAEALVWLFHQKPESLNPLTKYASATSGFGTNYVTGQKMDIDEDTAEKFYEVLLELEKRVRTTVQKSDHPS
As to B4, the binding result in experiment [3] was “binds”.

B5: MYC-HSD17B7 (enzyme, UniProt P56937 1-341)
chain: MRKVVLITGASSGIGLALCKRLLAEDDELHLCLACRNMSKAEAVCAALLASHPTAEVTIVQVDVSNLQSVFRASKELKQRFQRLDCIYLNAGIMPNPQLNIKALFFGLFSRKVIHMFSTAEGLLTQGDKITADGLQEVFETNVFGHFILIRELEPLLCHSDNPSQLIWTSSRSARKSNFSLEDFQHSKGKEPYSSSKYATDLLSVALNRNFNQQGLYSNVACPGTALTNLTYGILPPFIWTLLMPAILLLRFFANAFTLTPYNGTEALVWLFHQKPESLNPLIKYLSATTGFGRNYIMTQKMDLDEDTAEKFYQKLLELEKHIRVTIQKTDNQARLSGSCL
In the case of B5, the binding entry in the experiment with HA-ERα [2] was “binds”.

B6: HSD17B7 d119-172 (deletion mutant of HSD17B7-MYC) (enzyme, UniProt P56937)
chain: MRKVVLITGASSGIGLALCKRLLAEDDELHLCLACRNMSKAEAVCAALLASHPTAEVTIVQVDVSNLQSVFRASKELKQRFQRLDCIYLNAGIMPNPQLNIKALFFGLFSRKVIHMFSSARKSNFSLEDFQHSKGKEPYSSSKYATDLLSVALNRNFNQQGLYSNVACPGTALTNLTYGILPPFIWTLLMPAILLLRFFANAFTLTPYNGTEALVWLFHQKPESLNPLIKYLSATTGFGRNYIMTQKMDLDEDTAEKFYQKLLELEKHIRVTIQKTDNQARLSGSCL
With B6, the binding result with HA-ERα [2] is on record as “binds”.
